In article PMC7899339:

Experiments:
[1] = target: T1, MBP/DBD (NlFoxO DNA-binding domain) (Nilaparvata lugens) (UniProt A0A0M3M6L7); assay: competition with a labelled probe; settings: EMSA/Gel-Shift Kit (Beyotime) buffer, composition and pH not given, 0.2 pmol probe, 0.5-6 ug protein in 10 ul, 25 C, 20 min, recombinant protein, protein details: N-terminal MBP (pMAL-c5x)
MBP tag protein = assay: EMSA; settings: MBP tag control; EMSA/Gel-Shift Kit (Beyotime) buffer, composition and pH not given; 0.2 pmol probe, 0.5-6 ug protein in 10 ul; 25 C, 20 min; recombinant protein; protein details: MBP (pMAL-c5x vector alone)
[2] = target: T1, MBP/DBD (NlFoxO DNA-binding domain) (Nilaparvata lugens); assay: EMSA; settings: EMSA/Gel-Shift Kit (Beyotime) buffer, composition and pH not given, 0.2 pmol probe, 0.5-6 ug protein in 10 ul, 25 C, 20 min, recombinant protein, protein details: N-terminal MBP (pMAL-c5x)
[3] = binds, weaker than FRE1, label: 5' Alexa Fluor 680 on strand 1

Sequence | binding result [2, 3] | further results
CTCTTTGTTAATTCCACTACAACTTCAATTCCA (double strand) [FRE1_m] | – | binding result ([1]; excess FRE1_m vs labeled FRE1, complex unchanged): no binding
CTCTTTGTTAATTTGTTTACAACTTCAATTCCA (double strand) [FRE1] | – | binding result (MBP tag protein): no binding; binding result ([2]; strongest band of FRE1-5): binds; binding result ([1]; unlabeled FRE1 10x, 50x, 100x vs labeled FRE1, gradual reduction): binds
TGACTTGTGAGTGGTAAACAGATGTTCATGCGA (double strand) [FRE2] | binds more weakly | –
TGTTGAAAAGTACGTAAACACTACTGGATCAAT (double strand) [FRE4] | binds more weakly | –
TTCAATTTGGTATGTAAACAATCTAAATTAGAA (double strand) [FRE3] | binds more weakly | –
TTGAAGTGTTTACAGTGTTTTGTTTACTTTGAT (double strand) [FRE5] | binds more weakly | –

For at least one entry, the source does not settle the construct or the ends of the probe. For some assays here: Negatives hold for the conditions tested. For some assays here: A weaker result is weaker than the reference pair of the same experiment.
